Results deposited as PubChem BioAssay AID1259405 (NCATS, 2018)

Purpose: 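Silenced genes that increase secreted GFP made by CHO cells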 (primary screen)
Cells: Chinese hamster CHO-K1 ovary cells with stable secreted eGFP expression
Reagent: single siRNA against mouse genes, 0.8 pmol siRNA per well (2 µl of 400 nM stock)
Timing: 3 days
Measurement: 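Percent of the per-plate non-targeting control median for intracellular GFP per well by laser scanning cytometry and for cell viability by ATP luminescence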
Reading the numbers: GFP, % of control: higher = more GFP per well, higher productivity; viability (ATP), % of control: higher = more viable cells (more ATP)
Call rule: 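Called active when intracellular GFP, relative to negative control, is at or above 120%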
Here is a random part of about 50,000 deposited reagents. About 4,000 of them (8%) were called active. 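Mouse siRNA library applied to hamster cells; one well for each siRNA.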 Reagents against one gene are numbered here.

GFP, % of control	viability (ATP), % of control	activity call	gene	reagent no.
96.1	92.5	inactive	Gimap8 (GeneID 243374)	1
66.8	69.2	inactive	Gimap8 (GeneID 243374)	2
61.7	55.5	inactive	Gimap8 (GeneID 243374)	3
66.2	65.3	inactive	Zswim6 (GeneID 67263)	1
88.1	50.3	inactive	Zswim6 (GeneID 67263)	2
96.9	84.4	inactive	Zswim6 (GeneID 67263)	3
127	85.5	active	Sval1 (GeneID 71578)	1
112	113	inactive	Sval1 (GeneID 71578)	2
154	141	active	Sval1 (GeneID 71578)	3
73.3	75.5	inactive	Or5h18 (GeneID 258318)	1
55	85.6	inactive	Or5h18 (GeneID 258318)	2
76	97.5	inactive	Or5h18 (GeneID 258318)	3
90.8	91.6	inactive	Brk1 (GeneID 101314)	1
107	96.1	inactive	Brk1 (GeneID 101314)	2
102	91	inactive	Brk1 (GeneID 101314)	3
65.2	73.1	inactive	Ndufa13 (GeneID 67184)	1
98.7	73.3	inactive	Ndufa13 (GeneID 67184)	2
92.3	82.3	inactive	Ndufa13 (GeneID 67184)	3
59.1	59.3	inactive	Srebf1 (GeneID 20787)	1
69.4	67.9	inactive	Srebf1 (GeneID 20787)	2
116	68.2	inactive	Srebf1 (GeneID 20787)	3
48.3	50.2	inactive	Ddx54 (GeneID 71990)	1
68.7	58.7	inactive	Ddx54 (GeneID 71990)	2
131	140	active	Ddx54 (GeneID 71990)	3
70.6	47.6	inactive	Irf8 (GeneID 15900)	1
68.6	62.7	inactive	Irf8 (GeneID 15900)	2
131	118	active	Irf8 (GeneID 15900)	3
40.9	51.4	inactive	Exoc2 (GeneID 66482)	1
50.9	76.3	inactive	Exoc2 (GeneID 66482)	2
50	63.7	inactive	Exoc2 (GeneID 66482)	3
43.2	48.6	inactive	Or10d1 (GeneID 258501)	1
75.6	89.7	inactive	Or10d1 (GeneID 258501)	2
69.4	64.3	inactive	Or10d1 (GeneID 258501)	3
41.5	56.2	inactive	Mmab (GeneID 77697)	1
29.5	25.3	inactive	Mmab (GeneID 77697)	2
73.8	57.7	inactive	Mmab (GeneID 77697)	3
68.3	34.5	inactive	Saa2 (GeneID 20209)	1
78.5	53	inactive	Saa2 (GeneID 20209)	2
89.9	89.1	inactive	Saa2 (GeneID 20209)	3
29.4	51.1	inactive	Pspc1 (GeneID 66645)	1
144	64.4	active	Pspc1 (GeneID 66645)	2
148	117	active	Pspc1 (GeneID 66645)	3
55.1	48.8	inactive	Prom1 (GeneID 19126)	1
102	93.1	inactive	Prom1 (GeneID 19126)	2
80.4	75.6	inactive	Prom1 (GeneID 19126)	3
66.3	88.1	inactive	Dll4 (GeneID 54485)	1
125	88.1	active	Dll4 (GeneID 54485)	2
76	58.7	inactive	Dll4 (GeneID 54485)	3
78	87.8	inactive	Cpeb1 (GeneID 12877)	1
47.3	61.8	inactive	Cpeb1 (GeneID 12877)	2
67	64.5	inactive	Cpeb1 (GeneID 12877)	3
124	96.8	active	Rab3il1 (GeneID 74760)	1
71.4	88.4	inactive	Rab3il1 (GeneID 74760)	2
93.7	74.4	inactive	Rab3il1 (GeneID 74760)	3
50.4	58.2	inactive	Proz (GeneID 66901)	1
71	43.4	inactive	Proz (GeneID 66901)	2
95.4	63.4	inactive	Proz (GeneID 66901)	3
74.8	51.2	inactive	Ifna14 (GeneID 404549)	1
86.9	56.6	inactive	Ifna14 (GeneID 404549)	2
93.4	65.7	inactive	Ifna14 (GeneID 404549)	3
62.3	63.9	inactive	Ccn3 (GeneID 18133)	1
88.1	60.3	inactive	Ccn3 (GeneID 18133)	2
59.7	72.9	inactive	Ccn3 (GeneID 18133)	3
94.6	65.1	inactive	Ift140 (GeneID 106633)	1
81.4	97.3	inactive	Ift140 (GeneID 106633)	2
55.9	64.8	inactive	Ift140 (GeneID 106633)	3
94.7	74.1	inactive	Pxk (GeneID 218699)	1
107	74.8	inactive	Bex4 (GeneID 406217)	1
112	72.5	inactive	Bex4 (GeneID 406217)	2
63.2	88.2	inactive	Bex4 (GeneID 406217)	3
133	94.7	active	Cyb561a3 (GeneID 225912)	1
70	88.2	inactive	Cyb561a3 (GeneID 225912)	2
100	74.4	inactive	Cyb561a3 (GeneID 225912)	3
78.5	81.6	inactive	Sec14l2 (GeneID 67815)	1
62.5	42.4	inactive	Sec14l2 (GeneID 67815)	2
63.2	88.5	inactive	Sec14l2 (GeneID 67815)	3
104	100	inactive	Hlx (GeneID 15284)	1
113	88.1	inactive	Hlx (GeneID 15284)	2
40.3	35.9	inactive	Hlx (GeneID 15284)	3
54.7	56.9	inactive	Fpr-rs6 (GeneID 321020)	1
77.4	92.4	inactive	Fpr-rs6 (GeneID 321020)	2
74.1	89.4	inactive	Fpr-rs6 (GeneID 321020)	3
78	88.3	inactive	Igfbp4 (GeneID 16010)	1
54.7	82.3	inactive	Igfbp4 (GeneID 16010)	2
80.5	80.7	inactive	Igfbp4 (GeneID 16010)	3

14 entries already listed, ordered by “GFP, % of control”, high to low.
GFP, % of control	viability (ATP), % of control	activity call	gene	reagent no.
131	140	active	Ddx54 (GeneID 71990)	3
131	118	active	Irf8 (GeneID 15900)	3
116	68.2	inactive	Srebf1 (GeneID 20787)	3
92.3	82.3	inactive	Ndufa13 (GeneID 67184)	3
70.6	47.6	inactive	Irf8 (GeneID 15900)	1
69.4	67.9	inactive	Srebf1 (GeneID 20787)	2
68.7	58.7	inactive	Ddx54 (GeneID 71990)	2
68.6	62.7	inactive	Irf8 (GeneID 15900)	2
59.1	59.3	inactive	Srebf1 (GeneID 20787)	1
50.9	76.3	inactive	Exoc2 (GeneID 66482)	2
50	63.7	inactive	Exoc2 (GeneID 66482)	3
48.3	50.2	inactive	Ddx54 (GeneID 71990)	1
43.2	48.6	inactive	Or10d1 (GeneID 258501)	1
40.9	51.4	inactive	Exoc2 (GeneID 66482)	1
